Source: patent publication US8372880B2, “Compositions and methods using same for treating amyloid-associated diseases” (Tel Aviv University Future Technology Development L.P., priority 2003, dated 2013)
Entries after “also recorded” stand apart in the source; their conditions may differ. For at least one compound, name, drawing or mass did not settle the structure.

Key:
hIAPP1-37 [1] = biological target: T1, hIAPP1-37 (Homo sapiens, UniProt P10997); assay: Thioflavin T fluorescence assay of fibril formation; assay type: biochemical
T1 construct: purchased Calbiochem (CalBiochem Calif., USA); host or cells: solid-phase chemical synthesis
T1 sequence (P10997 34-70 limits assumed): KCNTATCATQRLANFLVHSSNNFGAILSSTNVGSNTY
Experimental: Fibrillization of hIAPP1-37 was monitored by Thioflavin T dye binding assay. hIAPP1-37 stock solution was diluted to a final concentration of 4 μM in 10 mM sodium acetate buffer (pH 6.5) with or without inhibitor, and a final HFIP concentration of 1% (vol). […] In every measurement ThT was added to a final concentration of 3 μM and measurements were carried out using Perkin Elmer (excitation 450 nm, 2.5 nm slit; emission 480 nm 10 nm slit). […] Background was subtracted from all samples.
Thioflavin T (ThT) is commonly used for detecting the level of amyloid formation. hIAPP1-37 solution was prepared as described above. Following incubation in the presence or absence of phenol red and addition of 3 μM ThT to each sample, fluorescence was measured.
Fibrillization of hIAPP1-37 was monitored by Thioflavin T (ThT) dye binding assay, as described above, using an inhibitor concentration of 40 μM or 4 μM.

hIAPP22-29 = biological target: T2, hIAPP22-29 (Homo sapiens, UniProt P10997); assay: Transmission electron microscopy of fibrils; assay type: biochemical; details: hIAPP22-29 with phenol red
T2 construct: purchased Peptron, Inc. (Taejeon, Korea); host or cells: solid-phase chemical synthesis

hIAPP1-37 [2] = biological target: T1, hIAPP1-37; assay: Transmission electron microscopy of fibrils; assay type: biochemical; details: hIAPP1-37 with phenol red, first stage approximately 30 hours
βTC-tet cells = assay: Scanning electron microscopy of β cells treated with hIAPP; assay type: cell-based, murine; details: β cells with hIAPP and 40 μM phenol red
hIAPP1-37 [3] = biological target: T1, hIAPP1-37; assay: Circular dichroism spectroscopy, secondary structure transition; assay type: biochemical; details: 4 μM hIAPP1-37, 40 μM phenol red (10 molar ratio), up to 96 hours
hIAPP20-29 = biological target: T3, hIAPP20-29 (Homo sapiens, UniProt P10997); assay: Transmission electron microscopy of fibrils; assay type: biochemical; details: hIAPP20-29 with inhibitor, 24 hr incubation
T3 construct: purchased Peptron, Inc. (Taejeon, Korea); host or cells: solid-phase chemical synthesis
Experimental: 10 μL samples of hIAPP22-29 or hIAPP20-29 from the aggregation assay, and hIAPP1-37 from the fluorescence assay were placed on 400-mesh copper grids (SPI supplies, West Chester Pa.) covered by carbon-stabilized Formvar film. After 1 minute, excess fluid was removed, and the grids were negatively stained with 2% uranyl acetate in water for another two minutes. Samples were viewed in a JEOL 1200EX electron microscope operating at 80 kV.
Samples of hIAPP22-29 and hIAPP20-29 taken from the aggregation assay (described in Example 3) were visualized using transmission electron microscopy. As is shown in FIG. 4a, distinct and well-defined amyloid fibers were observed 3 and 72 hours after initiation of aggregation in both samples of the hIAPP22-29 peptide, with a minor increase in fiber density and width following 72 hours. […] Same results were obtained with the hIAPP20-29 peptide after 24 hr incubation (FIG. 4b) in the presence of phenol red inhibitor. No inhibition was observed using phenolphthaleine under the same conditions and fibrillar structures were evident on the TEM grid.

PC12 cells = assay: MTT cell viability assay, hIAPP1-37 cytotoxicity; assay type: cell-based; details: PC12 cells with hIAPP1-37, gradual concentration of phenol red, 24 hours
[4] = 4 μM hIAPP1-37, 40 μM inhibitor

SMILES	inhibition of hIAPP1-37 fibril formation (ThT fluorescence) (hIAPP1-37 [1]; 4 μM hIAPP1-37, 4 μM inhibitor)	inhibition of hIAPP1-37 fibril formation (ThT fluorescence) (hIAPP1-37 [1]; [4])	fibril morphology by TEM (hIAPP22-29; 3 hours)	fibril morphology by TEM (hIAPP22-29; 72 hours)	fibril formation by TEM (hIAPP1-37 [2])	cell morphology by SEM compared to untreated cells (βTC-tet cells)	transition to β sheet conformation (218 nm ellipticity) (hIAPP1-37 [3])	fibril morphology by TEM (hIAPP20-29)	rescue of cell viability (MTT) (PC12 cells)
O=C1C=CC(=C(c2ccc(O)c(O)c2)c2ccccc2S(=O)(=O)O)C=C1O (mixture of isomers) [pyrocatechol violet]	significant lower level of fluorescence	even stronger inhibitory effect	–	–	–	–	–	–	–
O=S1(=O)OC(c2ccc(O)cc2)(c2ccc(O)cc2)c2ccccc21 [phenol red]	–	very low and constant levels of fluorescence; also recorded: constant low levels	no fibers were visualized	only small amount of fibrils, with different morphology	significant kinetic inhibition in fiber formation	practically no significant difference	significantly inhibited; also recorded: evident inhibition of transition to β sheet conformation	Same results	concentration dependent rescue; also recorded: dose dependent rescue effect
